Reference: PubChem BioAssay AID2685 (National Center for Advancing Translational Sciences (NCATS), 2010)
The list shows a part of the results. These are further read-outs of the screen, such as a control signal, another cell line or another target. No call is given for them. Most of these compounds were active or inconclusive in the main read-out, so they are no random draw. Words in brackets tell the shape of the fitted curve; partial curves, single points and poor fits give uncertain potencies.

Assay: qHTS Assay for Lipid Storage Modulators in Drosophila S3 Cells;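 on cell number change: cells counted by Cell Tracker Red CMTPX staining in the red channel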
Conditions: BODIPY lipid droplet fluorescence, 18-24 h; for cell number change: measured here: cell count max response, cells fed with added oleic acid
Outline: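 Drosophila S3 cells got compounds at several concentrations plus oleic acid (400 uM solution). Laser-scanning cytometry with 488 nm excitation read lipid droplets at 500-530 nm and cells at 575-640 nm. Percent activity was relative to 20 uM Triacsin C.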

[1] = measured here: lipid fluorescence (Fed channel) AC50, cells fed with added oleic acid
[2] = measured here: cell number channel AC50, cells fed with added oleic acid

| SMILES | AC50 [1] | cell number change [%] | AC50 [2] |
| --- | --- | --- | --- |
| O=C(N/N=C/c1ccc2c(c1)OCO2)c1ccc2c(c1)OCO2 | 7.08 µM [falling, full curve, poor fit] | – | – |
| CCOC(=O)c1cccc(NC(=O)c2ccc(NC(=O)c3ccco3)cc2)c1 | – | 8.65 | – |
| CCOC(=O)c1cncc(NC(=O)c2ccccc2)c1 | 14.6 µM [rising, partial curve] | 12.3 | – |
| COc1ccc(NC(=O)N/C=C/c2ccc(Cl)cc2)cc1 | 0.651 µM [rising, single point] | -7.36 | – |
| CCCCn1c(N)c(N(Cc2ccccc2OC)C(=O)c2ccc([N+](=O)[O-])s2)c(=O)[nH]c1=O | 8.2 µM [rising, partial curve, poor fit] | 36.6 | 6.51 µM [rising, partial curve] |
| CC(C(=O)N/N=C/c1ccc(N(C)C)c(Br)c1)N(c1ccccc1)S(C)(=O)=O (stereo not drawn) | 6.51 µM [falling, partial curve, poor fit] | – | 0.00517 µM [falling, full curve, poor fit] |
| O=C(Nc1ccccc1)c1ccccc1OCc1ccc(F)cc1 | 16.4 µM [rising, single point] | 22.3 | – |
| O=C(NC1CC(=O)N(c2ccccc2)C1)N1CCN(C(=O)c2ccco2)CC1 (stereo not drawn) | 13 µM [falling, partial curve] | -28.1 | – |
| CC(=O)c1cccc(NC(=O)C2CCCN(S(C)(=O)=O)C2)c1 (stereo not drawn) | 3.66 µM [falling, full curve] | -23.3 | 2.91 µM [falling, full curve, poor fit] |
| Cc1ccc(Nc2nc3ccccc3s2)cc1 | 29.1 µM [falling, single point] | -40.5 | 7.31 µM [falling, partial curve] |
| CCCCn1c(N)c(N(CCOC)C(=O)CSc2n[nH]c(-c3ccc(C)cc3)n2)c(=O)[nH]c1=O | – | 25 | 6.51 µM [rising, partial curve, poor fit] |
| CC(C)C(=O)Nc1cccc(C(=O)N2CCCCC2C)c1 (stereo not drawn) | – | 19.9 | – |
| CCOC(=O)N1CCN(Cc2nc3cc(NC(=O)CC)ccc3n2C)CC1 | – | 18.2 | – |
| CCc1ccc(S(=O)(=O)Nc2cccc(-c3ccc4nnc(C)n4n3)c2)s1 | – | -19 | – |
| CC(C)OC(=O)CSc1nc2cccnc2n1C1CCCCC1 | 0.092 µM [rising, full curve, poor fit] | -6.72 | – |
| COc1cc(/C=C/C(=O)O)cc(S(=O)(=O)Nc2cc(Cl)c(Cl)cc2Cl)c1OC | – | 11.5 | – |
| Nc1nc(N)c(N=Nc2ccc(SCC(=O)O)cc2)c(=O)[nH]1 | 29.1 µM [falling, single point] | -53 | 29.1 µM [falling, single point] |
| CCCCN(C(=O)NC(=O)Nc1cc(C)ccc1C)S(C)(=O)=O | – | -15.7 | – |
| NNC(=O)c1cc(-c2ccccc2)sc1N | 2.06 µM [rising, full curve, poor fit] | 16.4 | – |
| Fc1ccc(Nc2nc(N3CCOCC3)nc(N3CCOCC3)n2)cc1 | 18.4 µM [rising, single point] | -14.2 | – |
| NS(=O)(=O)c1ccc(NC(=O)c2ccccc2Cl)cc1 | 18.4 µM [falling, single point] | -34.4 | 4.61 µM [falling, full curve, poor fit] |
| O=C(C(Cc1ccccc1)NS(=O)(=O)c1cccc2cccnc12)N1CCc2ccccc21 (stereo not drawn) | – | 7.13 | – |
| COC(=O)c1ccc(NC(=O)CSC2=Nc3ccccc3C3CC=NN23)cc1 (stereo not drawn) | 3.26 µM [rising, partial curve] | 1.61 | 0.461 µM [rising, partial curve, poor fit] |
| CCN(CC)CCCNC(=O)C1CCN(C(=O)c2oc3cc4sc(N(C)C)nc4cc3c2C)CC1 | 3.66 µM [rising, partial curve] | 5.61 | – |
| COc1ccc(NC(=O)c2cnc(C)cn2)cc1-n1cnnn1 | 4.11 µM [rising, full curve] | 2.7 | – |
| O=C(COC(=O)c1ccc(Cl)nc1)Nc1ccccc1OC(F)F | 0.206 µM [falling, single point] | 83.3 | 29.1 µM [rising, partial curve, poor fit] |
| COc1ccc(CSc2ccc(S(=O)(=O)N3CCCCC3)cn2)cc1F | 0.0517 µM [rising, full curve] | -8.9 | – |
| COc1ccc2[nH]cc(S(=O)(=O)c3ccc(F)cc3)c(=O)c2c1 | 13 µM [falling, partial curve] | -29.3 | – |
| C[N+](C)(C)CCOC(N)=O | 1.46 µM [falling, full curve] | -33.1 | 1.46 µM [falling, full curve] |

Record cards, from the list above. Values in the order: AC50 [1]	cell number change [%]	AC50 [2]
`CCCCn1c(N)c(N(Cc2ccccc2OC)C(=O)c2ccc([N+](=O)[O-])s2)c(=O)[nH]c1=O` is entered as 8.2 µM [rising, partial curve, poor fit]	36.6	6.51 µM [rising, partial curve]
`COC(=O)c1ccc(NC(=O)CSC2=Nc3ccccc3C3CC=NN23)cc1` (stereo not drawn) is entered as 3.26 µM [rising, partial curve]	1.61	0.461 µM [rising, partial curve, poor fit]
